This passage reports binding results from article PMC10869442.

No constants are given. Whether binding was seen depends on the method and setting. A result given as binding can be weak or reduced; the word gives no strength. Tags and fused reporters may be left off the sequences shown. For some of these results: In cells and extracts the contact can be indirect.

The target of experiment [1] is T1, RIPK (RPM1-induced protein kinase), MYTH bait fused to the split-ubiquitin Cub domain (A. thaliana) (UniProt Q9ZUF4).
T1 sequence: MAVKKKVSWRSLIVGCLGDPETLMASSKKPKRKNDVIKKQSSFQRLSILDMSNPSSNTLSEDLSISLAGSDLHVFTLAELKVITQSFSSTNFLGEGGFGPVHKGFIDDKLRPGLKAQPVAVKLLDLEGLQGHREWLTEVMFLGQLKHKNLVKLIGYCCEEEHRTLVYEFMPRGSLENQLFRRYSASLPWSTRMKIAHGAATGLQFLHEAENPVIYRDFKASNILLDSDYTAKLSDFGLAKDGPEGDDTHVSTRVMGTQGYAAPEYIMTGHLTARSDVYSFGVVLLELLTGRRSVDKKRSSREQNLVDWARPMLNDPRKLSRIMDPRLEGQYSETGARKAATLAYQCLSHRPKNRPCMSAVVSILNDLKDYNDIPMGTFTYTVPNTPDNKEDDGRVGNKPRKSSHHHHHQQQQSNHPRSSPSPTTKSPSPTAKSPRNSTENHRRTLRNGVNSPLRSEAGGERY
Kind of experiment: two-hybrid; split-ubiquitin membrane yeast two-hybrid (MYTH) in S. cerevisiae NMY51; RIN4-like/NOIs as prey (Nub), RIPK, RPM1 and RPS2 as baits (Cub); growth on DOB+CSM-L-W-H with different concentrations of 3-AT.

Experiment [2] has as its target T2, RPS2 (R protein), MYTH bait fused to the split-ubiquitin Cub domain (A. thaliana) (UniProt Q42484).
T2 sequence: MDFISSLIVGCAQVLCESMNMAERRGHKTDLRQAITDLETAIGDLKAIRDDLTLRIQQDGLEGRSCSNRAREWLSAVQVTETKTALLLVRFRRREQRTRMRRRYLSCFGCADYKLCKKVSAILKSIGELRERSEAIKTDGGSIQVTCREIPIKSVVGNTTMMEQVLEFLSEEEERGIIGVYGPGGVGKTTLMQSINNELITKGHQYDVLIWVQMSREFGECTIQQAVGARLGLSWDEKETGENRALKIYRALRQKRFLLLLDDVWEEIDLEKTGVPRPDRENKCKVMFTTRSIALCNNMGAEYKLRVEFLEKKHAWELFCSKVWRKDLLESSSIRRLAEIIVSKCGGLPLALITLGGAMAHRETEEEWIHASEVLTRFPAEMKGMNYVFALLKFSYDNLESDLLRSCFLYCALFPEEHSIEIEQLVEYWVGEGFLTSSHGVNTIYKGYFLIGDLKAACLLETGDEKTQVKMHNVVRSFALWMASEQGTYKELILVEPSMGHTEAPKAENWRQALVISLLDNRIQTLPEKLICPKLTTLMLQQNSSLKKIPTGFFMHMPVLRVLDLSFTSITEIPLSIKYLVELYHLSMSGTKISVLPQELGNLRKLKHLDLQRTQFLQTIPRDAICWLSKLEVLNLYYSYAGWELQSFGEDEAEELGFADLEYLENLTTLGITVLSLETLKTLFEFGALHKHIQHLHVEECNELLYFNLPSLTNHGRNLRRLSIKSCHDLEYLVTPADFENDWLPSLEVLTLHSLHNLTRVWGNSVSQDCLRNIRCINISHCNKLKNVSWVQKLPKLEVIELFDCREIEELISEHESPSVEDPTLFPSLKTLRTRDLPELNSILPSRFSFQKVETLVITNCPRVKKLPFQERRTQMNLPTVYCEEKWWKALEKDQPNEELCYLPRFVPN
The experiment is described as above.

The target in experiment [3] is T3, RIPK-HA (A. thaliana) (UniProt Q9ZUF4).
T3 sequence: T1 sequence
Kind of experiment: co-IP; extracts of N. benthamiana leaves coexpressing HA-tagged RPM1, RIPK or RPS2 and GFP-fused RIN4/NOI proteins, 3 d after infiltration; anti-HA antibody on Dynabeads protein G, overnight at 4 °C; CoIP buffer 50 mM Tris HCl, 125 mM NaCl, 0.1% tween-20, 1 mM DTT, 10% glycerol, pH 7.4; anti-GFP blot.

Experiment [4] has as its target T4, RPM1-HA (A. thaliana) (UniProt Q39214).
T4 sequence: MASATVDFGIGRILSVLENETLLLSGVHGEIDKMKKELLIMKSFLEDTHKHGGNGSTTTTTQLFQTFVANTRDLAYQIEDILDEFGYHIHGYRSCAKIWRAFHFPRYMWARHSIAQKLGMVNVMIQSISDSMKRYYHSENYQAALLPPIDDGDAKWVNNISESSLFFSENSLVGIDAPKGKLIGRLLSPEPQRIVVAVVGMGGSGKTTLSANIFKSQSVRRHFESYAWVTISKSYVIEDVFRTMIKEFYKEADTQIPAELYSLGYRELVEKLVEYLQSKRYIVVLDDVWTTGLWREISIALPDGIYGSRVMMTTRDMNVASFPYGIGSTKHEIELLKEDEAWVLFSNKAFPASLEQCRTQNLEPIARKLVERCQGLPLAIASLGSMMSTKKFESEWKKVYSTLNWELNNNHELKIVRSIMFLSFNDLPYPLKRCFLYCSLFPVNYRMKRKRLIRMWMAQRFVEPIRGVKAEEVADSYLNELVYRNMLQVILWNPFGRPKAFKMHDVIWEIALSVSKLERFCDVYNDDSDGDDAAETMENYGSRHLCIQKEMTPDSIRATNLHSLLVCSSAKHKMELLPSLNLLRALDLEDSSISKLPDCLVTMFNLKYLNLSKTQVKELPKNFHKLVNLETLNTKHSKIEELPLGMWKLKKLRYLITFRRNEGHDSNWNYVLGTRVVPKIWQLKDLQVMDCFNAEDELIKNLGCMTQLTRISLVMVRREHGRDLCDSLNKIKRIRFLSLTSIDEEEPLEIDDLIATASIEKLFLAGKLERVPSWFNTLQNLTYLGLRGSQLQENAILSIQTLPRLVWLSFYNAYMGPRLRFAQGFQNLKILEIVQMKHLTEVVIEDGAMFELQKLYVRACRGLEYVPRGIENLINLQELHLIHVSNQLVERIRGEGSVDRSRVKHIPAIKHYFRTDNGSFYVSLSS
The experiment is described as above.

Experiment [5] deals with T5, RPS2-HA (A. thaliana) (UniProt Q42484).
T5 sequence: T2 sequence
The description is as above.

As for “NOI3 (RIN4-like/NOI protein), MYTH prey fused to the split-ubiquitin Nub domain (A. thaliana)”, the binding result in experiment [1] was “no binding”; in experiment [2] it was “binds weakly”.
“NOI5 (RIN4-like/NOI protein), MYTH prey fused to the split-ubiquitin Nub domain (A. thaliana)”: the binding entry in experiment [1] is “no binding”; in experiment [2], “binds weakly”.
As for “NOI10 (RIN4-like/NOI protein), MYTH prey fused to the split-ubiquitin Nub domain (A. thaliana)”, the binding result in experiment [1] and in experiment [2] was “binds” in each case.
For the substance NOI10 fused to GFP (A. thaliana), the binding result in experiment [3] is “binds”; in experiment [4], “binds weakly”.
Regarding “NOI11 (RIN4-like/NOI protein), MYTH prey fused to the split-ubiquitin Nub domain (A. thaliana)”, the binding entry in experiment [1] and in experiment [2] was “binds” throughout.
NOI11 fused to GFP (A. thaliana): the binding result in experiment [5], in experiment [3] and in experiment [4] was “binds” each time.
